Reference: paper doi:10.1101/2023.08.07.552250
These are yes or no findings as the source states them, for the method shown. Some results given as binding are weak or reduced against the parent protein; the word gives no strength.

Legend:
[1] = molecular target: T1, serine/arginine-rich 45 (SR45), SR45.1 isoform (Arabidopsis thaliana) (UniProt Q9SEE9); test: two-hybrid
T1 sequence: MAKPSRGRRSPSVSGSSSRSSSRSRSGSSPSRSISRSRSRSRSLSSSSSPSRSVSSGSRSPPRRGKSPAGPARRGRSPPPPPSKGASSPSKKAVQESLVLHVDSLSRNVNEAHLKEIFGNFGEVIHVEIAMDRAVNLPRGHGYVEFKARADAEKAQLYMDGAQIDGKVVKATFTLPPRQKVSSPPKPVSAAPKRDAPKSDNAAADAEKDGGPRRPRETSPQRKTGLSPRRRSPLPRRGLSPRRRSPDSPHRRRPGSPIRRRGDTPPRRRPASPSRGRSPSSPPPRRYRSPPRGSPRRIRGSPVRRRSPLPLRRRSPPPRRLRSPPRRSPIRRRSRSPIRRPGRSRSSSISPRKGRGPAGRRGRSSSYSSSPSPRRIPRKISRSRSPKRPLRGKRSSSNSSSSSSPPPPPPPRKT

[2] = molecular target: T2, SR45mutRRM (Arabidopsis thaliana) (UniProt Q9SEE9); test: two-hybrid
T2 sequence: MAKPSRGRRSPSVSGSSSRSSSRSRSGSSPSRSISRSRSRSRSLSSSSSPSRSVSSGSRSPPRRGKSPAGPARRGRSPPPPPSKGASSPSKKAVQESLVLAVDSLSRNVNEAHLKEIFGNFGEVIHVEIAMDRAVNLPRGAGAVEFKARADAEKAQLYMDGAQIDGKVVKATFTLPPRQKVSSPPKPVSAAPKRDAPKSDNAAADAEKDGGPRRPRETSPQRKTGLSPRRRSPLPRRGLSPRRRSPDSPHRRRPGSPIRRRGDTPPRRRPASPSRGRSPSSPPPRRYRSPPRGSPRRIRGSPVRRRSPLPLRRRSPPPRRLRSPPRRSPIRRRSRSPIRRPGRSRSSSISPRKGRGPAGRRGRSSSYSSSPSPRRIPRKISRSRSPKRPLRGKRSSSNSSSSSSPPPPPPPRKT

B1: AFC2 (enzyme, UniProt P51567 1-427)
chain: MEMERVHEFPHTHMDRRPRKRARLGWDVLPQATKAQVGMFCGQEIGNISSFASSGAPSDNSSSLCVKGVARNGSPPWREDDKDGHYIFELGDDLTPRYKIYSKMGEGTFGQVLECWDRERKEMVAVKIVRGVKKYREAAMIEIEMLQQLGKHDKGGNRCVQIRNWFDYRNHICIVFEKLGSSLYDFLRKNNYRSFPIDLVREIGWQLLECVAFMHDLRMIHTDLKPENILLVSSDYVKIPEYKGSRLQRDVCYKRVPKSSAIKVIDFGSTTYERQDQTYIVSTRHYRAPEVILGLGWSYPCDVWSVGCIIVELCTGEALFQTHENLEHLAMMERVLGPFPQQMLKKVDRHSEKYVRRGRLDWPDGATSRDSLKAVLKLPRLQNLIMQHVDHSAGELINMVQGLLRFDPSERITAREALRHPFFARRR
[1]
  binding: binds
[2]
  binding: binds

B2: RZ-1B (protein, UniProt O22703 1-292)
chain: MKDRENDGNLESRIFVGGLSWDVTERQLESTFDRYGKITECQIMVGRDTGRPRGFGFITFTDRRGADDAIKHMHGRELGNKVISVNKAEPKVGGEDVDQLKKGGGYSSRGKGTEDECFKCRRPGHWARDCPSTGDDRERFRVPLAMRSRIGDIDGHRDRYGDRDLEREREREREFDRYMDGRRDRDGGRYSYRDRFDSGDKYEPRDHYPFERYAPPGDRFVSDRYGMPEHHLENEYRGRERSYDRDRYARDTSDRYGDMGPIRDEGRPYRSRPGPYDRPSRPGGRPSSYERW
[1]
  binding: binds
[2]
  binding: binds weakly

B3: RZ-1C (protein, UniProt Q8RWN5 1-310)
chain: MAAKEGSRIFVGGLSPEVTDRDLERAFSRFGDILDCQIMLERDTGRSRGFGFITFADRRAMDESIREMHGRDFGDRVISVNRAEPKLGRDDGESHGSRGGRDSGYSIAGKGSFGGGGGGGGRVGEDECFKCGRVGHWARDCPSAGGGRGGPVGGFSSRASAYGGSDGRVDRYADRDRYVDRERYIDDRYDGAARYGARDRFDSREAYIPRDRYASDRYAAPADRFAGGDRYSRGSDRYPPGSYDKARSFERDIAPSAGSDRYGGGRAGGPIRGGGEEGRGFRSRAGAPYERPSRSGGGGAYPSSSTFDRY
[1]
  binding: binds
[2]
  binding: binds weakly

B4: MOS14 (MODIFIER OF SNC1-1, 14) (protein, UniProt Q8GUL2 1-958)
chain: MEHQNAVKEALNALYHHPDDTVRVHADRWLQNFQGTLDAWQVADNLLHDSSSNLETLIFCSQTLRSKVQRDFEELPPGAFQKLRQSLTTLLKKFHKGPPKVRTQISIAVAALAVHVPAADWGDGGIISWLRDEMHMHPEYVPGFLELLTVLPEETFNYKIAARPDRRRQFEKELTSQMEAALSILSACLKISELKEQVLEAFASWLRLRHGIPGTVLACHPLVHAALSSLNCDPLSEASVNVISELIHHTASPSSGGISAQTPLIQVIVPQILSLQAHLRDSSKDEEDVKAIGRLFADVGDSYVELIATGSDEPMVIVHALLEVTAHPEFDIASMTFNFWHSLQLMLTKRESYSSLGSEASIEVERNRRLHIFQPAYQSLVSLVGFRVQYPEDYQGLSYEDLKEFKQTRYAVADVLIDAALILGGDTTLKILYMKLLEANAQTGNNFQDWRPAEAILFCIWAISNYVSVVEAEVMPQVMALLQNLPQQAQLLQTACLLVGAYSKWLNAAPASVSILPSIIRILMSGMGTSEDCAAAAALAFRHTCDDCRKNLCGYFEDLFNIYCMAINGGGGYKVSAEDSLNLVEALGMVVTELPLDQAKGALEKLCFSAASPLEEAAKEDLEKKHARELTVHIDRFAFLFRYVNHPEAVAAEINKHWAIFRVIFDARPWDMRTMESLCRACKYAVRTSGRYIIDTIGEMLEKIQFHYQQHHQPCFLYLSSEVIKIFGSDPSCAVYLKNLIETLFAHTTCLMTSIKEVTARPDIADDCFLLASRCLRYCPHLFIPSPIFPALVNCAMIGITVQHREACHSILTFLTDIFDLEKSVNEEQFVRIRDNIIIPRGATITRILIASLAGALPSSRLDTVTYSLLALTRTYRLQAVSWAKESVSLIPRTALTETESTKFLQALSDIAYGADVNSLIGQVEELSDVCRRNRTVQELVQAALKPLELNLVTAPVS
[1]
  binding: binds

B5: MAGO (protein, UniProt O23676 1-150)
chain: MAAEEATEFYLRYYVGHKGKFGHEFLEFEFREDGKLRYANNSNYKNDTIIRKEVFLTPAVLKECKRIVSESEILKEDDNNWPEPDRVGKQELEIVLGNEHISFATSKIGSLVDCQSSNDPEGLRIFYYLVQDLKCLVFSLISLHFKIKPI
[1]
  binding: binds

B6: Y14 (protein, UniProt F4I9J7 1-202)
chain: MANIESEAVDFEPEEDDLMDEEGTAIDGADVSPRAGHPRLKSAIAGANGESAKKTKGRGFREEKDSDRQRRLSSRDFESLGSDGRPGPQRSVEGWIILVSGVHEETQEEDITNAFGDFGEIKNLNLNLDRRSGYVKGYALIEYEKKEEAQSAISAMNGAELLTQNVSVDWAFSSGPSGGESYRRKNSRYGRSQRSRSPRRRY
[1]
  binding: binds

B7: serine/arginine-rich 45 (SR45), SR45.1 isoform (protein, UniProt Q9SEE9-1 1-414)
chain: MAKPSRGRRSPSVSGSSSRSSSRSRSGSSPSRSISRSRSRSRSLSSSSSPSRSVSSGSRSPPRRGKSPAGPARRGRSPPPPPSKGASSPSKKAVQESLVLHVDSLSRNVNEAHLKEIFGNFGEVIHVEIAMDRAVNLPRGHGYVEFKARADAEKAQLYMDGAQIDGKVVKATFTLPPRQKVSSPPKPVSAAPKRDAPKSDNAAADAEKDGGPRRPRETSPQRKTGLSPRRRSPLPRRGLSPRRRSPDSPHRRRPGSPIRRRGDTPPRRRPASPSRGRSPSSPPPRRYRSPPRGSPRRIRGSPVRRRSPLPLRRRSPPPRRLRSPPRRSPIRRRSRSPIRRPGRSRSSSISPRKGRGPAGRRGRSSSYSSSPSPRRIPRKISRSRSPKRPLRGKRSSSNSSSSSSPPPPPPPRKT
[1]
  binding: no binding

B8: SR45.2 splicing isoform of SR45 (protein, UniProt Q9SEE9-2 1-407)
chain: MAKPSRGRRSPSVSGSSSRSSSRSRSGSSPSRSISRSRSRSRSLSSSSSPSRSVSSGSRSPPRRGKSPAGPARRGRSPPPPPSKGASSPSKKAVQESLVLHVDSLSRNVNEAHLKEIFGNFGEVIHVEIAMDRAVNLPRGHGYVEFKARADAEKAQLYMDGAQIDGKVVKATFTLPPRQKVSSPPKPVSAAPKRDAPKSDNAAADAEKDGGPRRPRERLSPRRRSPLPRRGLSPRRRSPDSPHRRRPGSPIRRRGDTPPRRRPASPSRGRSPSSPPPRRYRSPPRGSPRRIRGSPVRRRSPLPLRRRSPPPRRLRSPPRRSPIRRRSRSPIRRPGRSRSSSISPRKGRGPAGRRGRSSSYSSSPSPRRIPRKISRSRSPKRPLRGKRSSSNSSSSSSPPPPPPPRKT
[1]
  binding: no binding

B9: Cyp65 (protein, UniProt Q9FJX0 1-595)
chain: MGKKQHSKDRMFITKTEWATEWGGAKSKENRTPFKSLPYYCCALTFLPFEDPVCTIDGSVFEITTIVPYIRKFGKHPVTGAPLKGEDLIPLIFHKNSEGEYHCPVLNKVFTEFTHIVAVKTTGNVFCYEAIKELNIKTKNWKELLTEEPFTRADLITIQNPNAVDGKVTVEFDHVKNGLKIDDEELKKMNSDPAYNINVSGDIKHMLADLGTDKAKEIALHGGGGNKARNERAAAIAAILESRSKIKEVSKAEQPKQTYSVVDAASASVFGRSADAAKAGSSDKTAARIAMHMAGDRTPVNSKMVKSRYSSGAASRSFTSSAFTPVTKNDFELIKVEKNPKKKGYVQFQTTHGDLNIELHCDIAPRACENFITLCERGYYNGVAFHRSIRNFMIQGGDPTGTGKGGESIWGKPFKDEPNSKLLHSGRGVVSMANSGPHTNGSQFFVLYKSATHLNYKHTVFGGVVGGLATLAAMENVPVDESDRPLEEIKIIEASVFVNPYTELDEEEEKEKAEKEKNEDKDIEKIGSWYSNPGSGTTEAGAGGGGVGKYLKAMSSTATKDTKGSLDSDISTIGVSKKRKTTASASTGFKDFSSW
[1]
  binding: no binding

B10: Cyp71 (protein, UniProt Q8W4D0 1-631)
chain: MEEESKNGGTTIPTEELAVVAVPPVVEEEEPMVGPGPAPRGKRKRPLQFEQAYLDSLPSANMYEKSYMHRDVVTHVAVSAAEFFISGSMDGHLKFWKKKGVGIEFAKHFRSHLGPIEGLAVSIDGLLCCTISNDHAVKIYDVVNYDMMAMIRLPYIPGAVEWVYKQGDVKAKLAVSDRDSLFVHIYDPRSGSNEPIASKEIHMNPIKVMKYNPVSDTMISGDTKGIIEYWSATTLQFPEDEVNFKLKSDTNLFEIIKCKTTISAIEVSPDGKQFSITAPDRRIRVFWFRTGKLRRVYDESLVVAQDLQRSDAPLYRLEAIDFGRRMAVEKELEKTESAPQPNAVFDESSNFLIYATFLGIKVINLHTNTVARILGKVESNERYLRVALYQGDQGGKKVRKIPAAAANVNESKEPLTDPTILCCAFKKHRIYMFSRREPEEPEDASQGRDVFNEKPAADELMSVSDIGNSATTSLPENVIMHTTLGDIHMKLYPEECPKTVENFTTHCRNGYYDNHLFHRVIRGFMIQTGDPLGDGTGGQSIWGREFEDEFHKSLRHDRPFTLSMANAGPNTNGSQFFITTVATPWLDNKHTVFGRVVKGMDVVQGIEKVKTDKNDRPYQDVKILNVTVPKS
[1]
  binding: no binding

B11: GRP7 (protein, UniProt Q03250 1-176)
chain: MASGDVEYRCFVGGLAWATDDRALETAFAQYGDVIDSKIINDRETGRSRGFGFVTFKDEKAMKDAIEGMNGQDLDGRSITVNEAQSRGSGGGGGHRGGGGGGYRSGGGGGYSGGGGSYGGGGGRREGGGGYSGGGGGYSSRGGGGGSYGGGRREGGGGYGGGEGGGYGGSGGGGGW
[1]
  binding: no binding

B12: GRP8 (protein, UniProt Q03251 1-169)
chain: MSEVEYRCFVGGLAWATNDEDLQRTFSQFGDVIDSKIINDRESGRSRGFGFVTFKDEKAMRDAIEEMNGKELDGRVITVNEAQSRGSGGGGGGRGGSGGGYRSGGGGGYSGGGGGGYSGGGGGGYERRSGGYGSGGGGGGRGYGGGGRREGGGYGGGDGGSYGGGGGGW
[1]
  binding: no binding
